Assay results reported in publication PMC9532426, “Autophagy induction promoted by m6A reader YTHDF3 through translation upregulation of FOXO3 mRNA”.

Amino acid sequences for entries named in this document (tags omitted).
UniProt Q8BGD9: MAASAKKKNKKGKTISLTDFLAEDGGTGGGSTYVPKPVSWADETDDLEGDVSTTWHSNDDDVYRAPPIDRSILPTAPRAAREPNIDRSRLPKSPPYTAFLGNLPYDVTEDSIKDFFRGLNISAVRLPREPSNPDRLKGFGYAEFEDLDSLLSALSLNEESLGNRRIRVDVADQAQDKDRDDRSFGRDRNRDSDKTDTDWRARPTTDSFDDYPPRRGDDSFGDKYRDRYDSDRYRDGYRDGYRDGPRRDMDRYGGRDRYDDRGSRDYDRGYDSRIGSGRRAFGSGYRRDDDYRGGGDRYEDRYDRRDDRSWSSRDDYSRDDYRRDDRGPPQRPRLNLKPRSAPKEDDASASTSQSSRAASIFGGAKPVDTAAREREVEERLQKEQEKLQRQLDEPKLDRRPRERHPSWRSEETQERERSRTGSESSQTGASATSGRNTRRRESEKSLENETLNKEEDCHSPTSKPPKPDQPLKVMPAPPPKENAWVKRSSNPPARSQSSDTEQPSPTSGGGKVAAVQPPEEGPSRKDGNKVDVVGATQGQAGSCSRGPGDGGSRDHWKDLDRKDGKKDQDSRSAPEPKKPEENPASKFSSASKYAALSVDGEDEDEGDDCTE
UniProt P26369: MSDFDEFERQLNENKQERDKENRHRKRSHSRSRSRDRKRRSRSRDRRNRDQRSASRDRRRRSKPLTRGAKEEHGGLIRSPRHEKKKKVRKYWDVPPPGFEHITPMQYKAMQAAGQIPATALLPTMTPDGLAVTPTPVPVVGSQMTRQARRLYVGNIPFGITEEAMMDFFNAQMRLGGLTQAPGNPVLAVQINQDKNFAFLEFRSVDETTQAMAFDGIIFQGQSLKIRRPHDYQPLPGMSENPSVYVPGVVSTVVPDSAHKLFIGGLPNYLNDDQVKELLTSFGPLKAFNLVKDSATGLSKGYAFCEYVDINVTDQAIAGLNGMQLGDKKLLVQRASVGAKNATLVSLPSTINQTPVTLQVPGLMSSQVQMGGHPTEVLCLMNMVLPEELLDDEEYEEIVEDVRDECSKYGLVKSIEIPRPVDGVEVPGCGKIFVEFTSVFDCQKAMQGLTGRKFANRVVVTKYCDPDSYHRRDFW
UniProt Q8VDM6: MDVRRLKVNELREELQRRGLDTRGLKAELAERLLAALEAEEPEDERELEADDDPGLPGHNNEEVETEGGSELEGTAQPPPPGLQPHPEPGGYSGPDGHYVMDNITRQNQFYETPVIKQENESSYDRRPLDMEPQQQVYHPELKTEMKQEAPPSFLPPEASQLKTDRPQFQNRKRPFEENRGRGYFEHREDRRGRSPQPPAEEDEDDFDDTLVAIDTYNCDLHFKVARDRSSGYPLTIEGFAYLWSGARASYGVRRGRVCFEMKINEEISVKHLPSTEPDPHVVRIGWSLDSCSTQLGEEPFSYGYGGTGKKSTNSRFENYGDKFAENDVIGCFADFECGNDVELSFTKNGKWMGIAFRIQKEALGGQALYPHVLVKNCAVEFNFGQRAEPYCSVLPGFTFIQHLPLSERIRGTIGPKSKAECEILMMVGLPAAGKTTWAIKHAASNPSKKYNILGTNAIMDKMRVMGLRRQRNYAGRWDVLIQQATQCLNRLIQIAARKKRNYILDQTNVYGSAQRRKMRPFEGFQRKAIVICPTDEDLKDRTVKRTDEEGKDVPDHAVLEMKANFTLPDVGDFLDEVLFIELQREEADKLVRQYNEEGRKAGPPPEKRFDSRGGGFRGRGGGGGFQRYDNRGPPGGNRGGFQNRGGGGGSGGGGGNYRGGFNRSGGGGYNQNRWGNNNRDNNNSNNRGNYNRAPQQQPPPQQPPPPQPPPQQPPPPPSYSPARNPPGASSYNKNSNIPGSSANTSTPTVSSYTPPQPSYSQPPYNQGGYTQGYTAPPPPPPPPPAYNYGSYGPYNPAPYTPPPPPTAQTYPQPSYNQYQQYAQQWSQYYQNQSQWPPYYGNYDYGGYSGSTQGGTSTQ
UniProt Q9Z204: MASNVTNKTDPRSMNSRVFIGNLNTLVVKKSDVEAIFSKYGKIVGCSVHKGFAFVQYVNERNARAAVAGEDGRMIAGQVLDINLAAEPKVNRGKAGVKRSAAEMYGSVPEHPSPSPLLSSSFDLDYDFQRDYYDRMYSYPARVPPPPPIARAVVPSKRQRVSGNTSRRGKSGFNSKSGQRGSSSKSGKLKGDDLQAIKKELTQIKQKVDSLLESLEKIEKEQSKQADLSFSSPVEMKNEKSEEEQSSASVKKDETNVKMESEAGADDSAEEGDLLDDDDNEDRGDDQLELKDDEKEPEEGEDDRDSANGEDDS
UniProt P53996: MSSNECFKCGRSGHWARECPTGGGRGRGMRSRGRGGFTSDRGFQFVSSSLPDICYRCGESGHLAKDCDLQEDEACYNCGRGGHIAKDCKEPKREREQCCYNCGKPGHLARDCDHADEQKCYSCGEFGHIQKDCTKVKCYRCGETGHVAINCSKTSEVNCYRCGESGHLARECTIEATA
UniProt O88477: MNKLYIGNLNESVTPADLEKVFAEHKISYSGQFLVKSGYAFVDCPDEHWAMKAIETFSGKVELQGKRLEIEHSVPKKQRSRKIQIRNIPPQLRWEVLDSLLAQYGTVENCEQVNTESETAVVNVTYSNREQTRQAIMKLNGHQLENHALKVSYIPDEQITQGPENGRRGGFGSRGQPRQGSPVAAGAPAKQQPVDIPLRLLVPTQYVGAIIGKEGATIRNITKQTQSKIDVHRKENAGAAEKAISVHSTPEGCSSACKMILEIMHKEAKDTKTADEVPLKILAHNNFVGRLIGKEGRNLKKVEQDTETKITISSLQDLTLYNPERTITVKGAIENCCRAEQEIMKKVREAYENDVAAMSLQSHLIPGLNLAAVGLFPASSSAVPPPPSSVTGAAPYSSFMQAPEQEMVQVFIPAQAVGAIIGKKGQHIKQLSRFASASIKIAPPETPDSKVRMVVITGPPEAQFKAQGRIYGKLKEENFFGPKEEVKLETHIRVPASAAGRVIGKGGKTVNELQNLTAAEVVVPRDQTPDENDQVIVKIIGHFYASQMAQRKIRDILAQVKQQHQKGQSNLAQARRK
UniProt Q8BQ46: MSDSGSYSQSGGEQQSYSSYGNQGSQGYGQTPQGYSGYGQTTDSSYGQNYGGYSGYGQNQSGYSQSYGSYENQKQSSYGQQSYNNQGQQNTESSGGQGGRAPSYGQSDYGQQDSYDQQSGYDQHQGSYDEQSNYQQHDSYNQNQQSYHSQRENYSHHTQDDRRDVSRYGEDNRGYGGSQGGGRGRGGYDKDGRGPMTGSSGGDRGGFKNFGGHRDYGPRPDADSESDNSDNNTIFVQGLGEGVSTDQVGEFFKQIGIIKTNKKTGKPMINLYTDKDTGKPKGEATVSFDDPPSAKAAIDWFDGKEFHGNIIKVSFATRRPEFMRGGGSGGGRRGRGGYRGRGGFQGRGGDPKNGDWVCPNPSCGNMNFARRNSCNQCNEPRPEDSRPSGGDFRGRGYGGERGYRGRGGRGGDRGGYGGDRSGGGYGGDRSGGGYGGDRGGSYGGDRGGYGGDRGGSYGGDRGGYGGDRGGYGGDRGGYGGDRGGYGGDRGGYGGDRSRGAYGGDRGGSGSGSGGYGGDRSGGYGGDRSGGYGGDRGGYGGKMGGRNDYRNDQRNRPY
UniProt Q8K4L0: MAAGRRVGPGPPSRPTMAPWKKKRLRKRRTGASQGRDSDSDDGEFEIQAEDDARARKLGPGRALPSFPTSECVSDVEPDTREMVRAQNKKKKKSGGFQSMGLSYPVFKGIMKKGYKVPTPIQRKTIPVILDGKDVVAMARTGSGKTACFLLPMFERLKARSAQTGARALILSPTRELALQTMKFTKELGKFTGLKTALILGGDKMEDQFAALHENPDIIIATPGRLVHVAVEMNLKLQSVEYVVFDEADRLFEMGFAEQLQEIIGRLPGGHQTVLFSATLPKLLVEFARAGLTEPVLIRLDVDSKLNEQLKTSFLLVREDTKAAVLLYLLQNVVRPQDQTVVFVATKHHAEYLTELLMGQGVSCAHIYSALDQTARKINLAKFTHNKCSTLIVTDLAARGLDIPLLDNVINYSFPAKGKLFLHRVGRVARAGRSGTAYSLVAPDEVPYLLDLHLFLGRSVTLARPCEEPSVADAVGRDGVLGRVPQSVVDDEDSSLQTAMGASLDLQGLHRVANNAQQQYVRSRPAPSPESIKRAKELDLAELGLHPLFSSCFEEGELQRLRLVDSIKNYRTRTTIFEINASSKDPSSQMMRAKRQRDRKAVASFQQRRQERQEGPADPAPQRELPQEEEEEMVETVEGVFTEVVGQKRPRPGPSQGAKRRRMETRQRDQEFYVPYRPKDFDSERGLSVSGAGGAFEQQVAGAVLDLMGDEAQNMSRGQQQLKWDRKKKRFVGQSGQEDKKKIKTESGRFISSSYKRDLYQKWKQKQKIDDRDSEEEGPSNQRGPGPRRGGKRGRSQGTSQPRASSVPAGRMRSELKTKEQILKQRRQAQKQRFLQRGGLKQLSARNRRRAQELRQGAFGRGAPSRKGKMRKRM
UniProt Q921F2: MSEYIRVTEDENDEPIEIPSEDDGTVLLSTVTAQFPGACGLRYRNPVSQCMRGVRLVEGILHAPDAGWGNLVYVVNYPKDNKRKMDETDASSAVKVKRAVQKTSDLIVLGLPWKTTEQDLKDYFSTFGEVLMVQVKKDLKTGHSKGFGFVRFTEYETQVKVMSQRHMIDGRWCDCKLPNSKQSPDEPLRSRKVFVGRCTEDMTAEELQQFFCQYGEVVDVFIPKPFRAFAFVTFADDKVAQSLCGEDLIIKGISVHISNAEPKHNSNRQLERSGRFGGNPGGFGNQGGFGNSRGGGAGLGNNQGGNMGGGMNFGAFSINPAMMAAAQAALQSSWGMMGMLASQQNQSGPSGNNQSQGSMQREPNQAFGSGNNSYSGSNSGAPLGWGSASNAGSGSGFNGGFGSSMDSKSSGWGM
UniProt O70194: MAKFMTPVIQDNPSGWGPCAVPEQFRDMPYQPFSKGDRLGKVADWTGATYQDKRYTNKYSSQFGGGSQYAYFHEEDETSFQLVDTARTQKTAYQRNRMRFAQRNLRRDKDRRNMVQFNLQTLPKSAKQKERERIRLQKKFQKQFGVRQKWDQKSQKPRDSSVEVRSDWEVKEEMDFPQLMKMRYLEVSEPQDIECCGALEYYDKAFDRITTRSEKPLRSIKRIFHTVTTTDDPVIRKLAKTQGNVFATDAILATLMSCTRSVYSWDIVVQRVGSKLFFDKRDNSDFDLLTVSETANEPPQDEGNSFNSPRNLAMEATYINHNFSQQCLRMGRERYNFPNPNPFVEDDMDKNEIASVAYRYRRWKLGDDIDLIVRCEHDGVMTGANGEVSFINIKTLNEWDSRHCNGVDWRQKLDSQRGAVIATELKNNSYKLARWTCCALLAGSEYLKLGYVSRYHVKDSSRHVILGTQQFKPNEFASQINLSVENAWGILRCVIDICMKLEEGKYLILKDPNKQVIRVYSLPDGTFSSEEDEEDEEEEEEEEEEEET
UniProt Q5SF07: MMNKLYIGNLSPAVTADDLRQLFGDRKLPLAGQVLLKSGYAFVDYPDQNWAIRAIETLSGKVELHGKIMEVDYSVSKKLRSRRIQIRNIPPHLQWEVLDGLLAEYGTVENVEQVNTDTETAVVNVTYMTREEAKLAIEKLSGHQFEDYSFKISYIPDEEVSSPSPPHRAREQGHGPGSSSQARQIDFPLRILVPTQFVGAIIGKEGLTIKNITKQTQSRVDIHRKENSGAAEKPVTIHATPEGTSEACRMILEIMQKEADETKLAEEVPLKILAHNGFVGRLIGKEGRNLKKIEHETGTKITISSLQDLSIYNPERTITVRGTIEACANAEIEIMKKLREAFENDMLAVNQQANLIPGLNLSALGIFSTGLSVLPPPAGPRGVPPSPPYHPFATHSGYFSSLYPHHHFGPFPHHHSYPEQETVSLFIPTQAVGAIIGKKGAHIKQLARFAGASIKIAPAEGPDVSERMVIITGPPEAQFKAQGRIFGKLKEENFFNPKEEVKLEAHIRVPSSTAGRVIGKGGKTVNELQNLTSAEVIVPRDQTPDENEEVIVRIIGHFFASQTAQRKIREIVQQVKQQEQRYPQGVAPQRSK

T1: YTHDF3 (mouse (endogenous in MEFs)) (UniProt Q8BYK6)
T1 sequence: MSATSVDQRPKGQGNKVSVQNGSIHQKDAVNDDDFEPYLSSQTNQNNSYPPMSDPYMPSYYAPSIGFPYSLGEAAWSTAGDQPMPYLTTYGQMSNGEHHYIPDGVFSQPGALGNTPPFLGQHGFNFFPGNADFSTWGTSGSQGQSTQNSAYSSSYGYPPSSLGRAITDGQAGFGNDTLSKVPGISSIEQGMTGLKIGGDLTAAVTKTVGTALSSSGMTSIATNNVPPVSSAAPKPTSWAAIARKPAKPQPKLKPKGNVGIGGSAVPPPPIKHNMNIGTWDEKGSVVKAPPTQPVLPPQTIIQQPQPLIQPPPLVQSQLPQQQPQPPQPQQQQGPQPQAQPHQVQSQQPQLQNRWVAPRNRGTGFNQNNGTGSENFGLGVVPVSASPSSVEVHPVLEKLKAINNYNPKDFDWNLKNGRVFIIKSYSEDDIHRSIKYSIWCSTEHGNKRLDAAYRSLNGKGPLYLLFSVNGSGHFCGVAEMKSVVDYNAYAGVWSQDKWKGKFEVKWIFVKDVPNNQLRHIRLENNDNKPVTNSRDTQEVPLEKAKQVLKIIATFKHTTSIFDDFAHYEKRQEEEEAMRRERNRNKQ


Target: T1, YTHDF3 (mouse (endogenous in MEFs))
Experiment: affinity purification with mass spectrometry; anti-YTHDF3 antibody (sc-377119) crosslinked to Protein A/G Plus Agarose, MEF lysates under normal and nutrient-free conditions, overnight at 4 °C, LC-MS/MS; mouse IgG as control

| Molecule | binding |
| --- | --- |
| eIF4B (from UniProt Q8BGD9 1-611) | binds |
| eIF3a (from UniProt P23116 1-1344) | binds |
| U2AF2 (from UniProt P26369 1-475) | binds |
| HNRNPUL1 (from UniProt Q8VDM6 1-859) | binds |
| HNRNPC (from UniProt Q9Z204 1-313) | binds |
| CNBP (from UniProt P53996 1-178) | binds |
| IGF2BP1 (from UniProt O88477 1-577) | binds |

The next lines start with the values.

| binding | Molecule |
| --- | --- |
| binds | TAF15 (from UniProt Q8BQ46 1-557) |
| binds | DDX54 (from UniProt Q8K4L0 1-874) |
| binds | TARDBP (from UniProt Q921F2 1-414) |
| binds | eIF3d (from UniProt O70194 1-548) |
| binds | IGF2BP2 (from UniProt Q5SF07 1-592) |

Target: T1, YTHDF3 (mouse (endogenous in MEFs))
Experiment: as above
Remark: another data set of the same source

| Molecule | binding |
| --- | --- |
| MBNL1 (protein, UniProt Q9JKP5 1-341) MAVSVTPIRDTKWLTLEVCREFQRGTCSRPDTECKFAHPSKSCQVENGRVIACFDSLKGRCSRENCKYLHPPPHLKTQLEINGRNNLIQQKNMAMLAQQMQLANAMMPGAPLQPVPMFSVAPSLATSASAAFNPYLGPVSPSLVPAEILPTAPMLVTGNPGVPVPAAAAAAAQKLMRTDRLEVCREYQRGNCNRGENDCRFAHPADSTMIDTNDNTVTVCMDYIKGRCSREKCKYFHPPAHLQAKIKAAQYQVNQAAAAQAAATAAAMGIPQAVLPPLPKRPALEKTNGATAVFNTGIFQYQQALANMQLQQHTAFLPPGSILCMTPATSVDTHNICRTSD | binds |
| CSTF2T (protein, UniProt Q8C7E9 1-632) MSSLAVRDPAMDRSLRSVFVGNIPYEATEEQLKDIFSEVGSVVSFRLVYDRETGKPKGYGFCEYQDQETALSAMRNLNGREFSGRALRVDNAASEKNKEELKSLGPAAPIIDSPYGDPIDPEDAPESITRAVASLPPEQMFELMKQMKLCVQNSHQEARNMLLQNPQLAYALLQAQVVMRIMDPEIALKILHRKIHVTPLIPGKSQPVSGPGPGGPGPSGPGGPGPGPAPGLCPGPNVMLNQQNPPAPQPQHLPRRPVKDIPPLMQTSIQGGIPAPGPIPAAVPGPGPGSLTPGGAMQPQVGMPVVGPVPLERGQMQISDPRPPMPRGPMPSGGIPPRGLLGDAPNDPRGGTLLSVTGEVEPRGYMGPPHQGPPMHHGHDNRGPASHDMRGGPLAADPRMLIGEPRGPMIDQRGLPMDGRGGRESRGMETRPMETEVLEPRGMERRMETCAMETRGMDARGLEMRGPGPSSRGPMTGGIQGPGPINMGAGGPQGPRQVPNIAGVGNPGGTMQGAGIQGGGMQGAGMQGGGMQGAGMQGGGMQGAGMQAGMQGASMQGGMQGAGMQGASKQGGGQPSSFSPGQSQVTPQDQEKAALIMQVLQLTADQIAMLPPEQRQSILILKEQIQKSTGAS | binds |
| RBM39 (protein, UniProt Q8VH51 1-530) MADDIDIEAMLEAPYKKDENKLNSANGHEERSKKRKKSKSRSRSHERKRSKSKERKRSRDRERKKSKSRERKRSRSKERRRSRSRSRDRRFRGRYRSPYSGPKFNSAIRGKIGLPHSIKLSRRRSRSKSPFRKDKSPVREPIDNLTPEERDARTVFCMQLAARIRPRDLEEFFSTVGKVRDVRMISDRNSRRSKGIAYVEFVDVSSVPLAIGLTGQRVLGVPIIVQASQAEKNRAAAMANNLQKGSAGPMRLYVGSLHFNITEDMLRGIFEPFGRIESIQLMMDSETGRSKGYGFITFSDSECAKKALEQLNGFELAGRPMKVGHVTERTDASSASSFLDSDELERTGIDLGTTGRLQLMARLAEGTGLQIPPAAQQALQMSGSLAFGAVAEFSFVIDLQTRLSQQTEASALAAAASVQPLATQCFQLSNMFNPQTEEEVGWDTEIKDDVIEECNKHGGVIHIYVDKNSAQGNVYVKCPSIAAAIAAVNALHGRWFAGKMITAAYVPLPTYHNLFPDSMTATQLLVPSRR | binds |

Continued, values first:

| binding | Molecule |
| --- | --- |
| binds | NOP58 (protein, UniProt Q6DFW4 1-536) MLVLFETSVGYAIFKVLNEKKLQEVDSLWKEFETPEKANKIVKLKHFEKFQDTAEALAAFTALMEGKINKQLKKVLKKIVKEAHEPLAVADAKLGGVIKEKLNLSCIHSPVVNELMRGIRSQMDGLIPGVEPREMAAMCLGLAHSLSRYRLKFSADKVDTMIVQAISLLDDLDKELNNYIMRCREWYGWHFPELGKIISDNLTYCKCLQKVGDRKNYASASLSEFLSEEVEAEVKAAAEISMGTEVSEEDICNILHLCTQVIEISEYRTQLYEYLQNRMMAIAPNVTVMVGELVGARLIAHAGSLLNLAKHAASTVQILGAEKALFRALKSRRDTPKYGLIYHASLVGQSSPKHKGKISRMLAAKTVLAIRYDAFGEDSSSAMGIENRAKLEARLRILEDRGIRKISGTGKALAKAEKYEHKSEVKTYDPSGDSTLPTCSKKRKIEEVDKEDEITEKKAKKAKIKIKAEVEEEMEEEEAEEEQVVEEEPTVKKKKKKDKKKHIKEEPLSEEEPCTSTAVPSPEKKKKKKKKKDAED |
| binds | ATXN2 (protein, UniProt O70305 1-1285) MRSSTAAVQRPAAGDPEPRRPAGWAARRSLPRTARRGGRGGAVAYPSAGPPPRGPGAPPRGPRSPPCASDCFGSNGHGASRPGSRRLLGVCGPPRPFVVVLLALAPAATPARACPPGVRASPPRSGVSSSARPAPGCPRPACEPVYGPLTMSLKPQPQPPAPATGRKPGGGLLSSPGAAPASAAVTSASVVPAPAAPVASSSAAAGGGRPGLGRGRNSSKGLPQPTISFDGIYANVRMVHILTSVVGSKCEVQVKNGGIYEGVFKTYSPKCDLVLDAAHEKSTESSSGPKREEIMESVLFKCSDFVVVQFKDTDSSYARRDAFTDSALSAKVNGEHKEKDLEPWDAGELTASEELELENDVSNGWDPNDMFRYNEENYGVVSTYDSSLSSYTVPLERDNSEEFLKREARANQLAEEIESSAQYKARVALENDDRSEEEKYTAVQRNCSDREGHGPNTRDNKYIPPGQRNREVLSWGSGRQSSPRMGQPGPGSMPSRAASHTSDFNPNAGSDQRVVNGGVPWPSPCPSHSSRPPSRYQSGPNSLPPRAATHTRPPSRPPSRPSRPPSHPSAHGSPAPVSTMPKRMSSEGPPRMSPKAQRHPRNHRVSAGRGSMSSGLEFVSHNPPSEAAAPPVARTSPAGGTWSSVVSGVPRLSPKTHRPRSPRQSSIGNSPSGPVLASPQAGIIPAEAVSMPVPAASPTPASPASNRALTPSIEAKDSRLQDQRQNSPAGSKENVKASETSPSFSKADNKGMSPVVSEHRKQIDDLKKFKNDFRLQPSSTSESMDQLLSKNREGEKSRDLIKDKTEASAKDSFIDSSSSSSNCTSGSSKTNSPSISPSMLSNAEHKRGPEVTSQGVQTSSPACKQEKDDREEKKDTTEQVRKSTLNPNAKEFNPRSFSQPKPSTTPTSPRPQAQPSPSMVGHQQPAPVYTQPVCFAPNMMYPVPVSPGVQPLYPIPMTPMPVNQAKTYRAGKVPNMPQQRQDQHHQSTMMHPASAAGPPIVATPPAYSTQYVAYSPQQFPNQPLVQHVPHYQSQHPHVYSPVIQGNARMMAPPAHAQPGLVSSSAAQFGAHEQTHAMYACPKLPYNKETSPSFYFAISTGSLAQQYAHPNAALHPHTPHPQPSATPTGQQQSQHGGSHPAPSPVQHHQHQAAQALHLASPQQQSAIYHAGLAPTPPSMTPASNTQSPQSSFPAAQQTVFTIHPSHVQPAYTTPPHMAHVPQAHVQSGMVPSHPTAHAPMMLMTTQPPGPKAALAQSALQPIPVSTTAHFPYMTHPSVQAHHQQQL |
| binds | SRSF7 (protein, UniProt Q8BL97 1-267) MRSSARGRPLQAATAFFLSLFFFLRRFERGFWLWGGDSETKVYVGNLGTGAGKGELERAFSYYGPLRTVWIARNPPGFAFVEFEDPRDAEDAVRGLDGKVICGSRVRVELSTGMPRRSRFDRPPARRPFDPNDRCYECGEKGHYAYDCHRYSRRRRSRSRSRSHSRSRGRRYSRSRSRSRGRRSRSASPRRSRSVSLRRSRSASLRRSRSGSIIGSRYFQSRSRSRSRSRSISRPRSSRSKSRSPSPKRSRSPSGSPHRSASPERMD |

No constants are given. Whether binding was seen depends on the method and setting. Binding seen in cells or lysates may run through a third protein. A yes stands for co-enrichment or nearness to the bait. Other partners may have been found.
